From ChEMBL document CHEMBL3988442, “University of Dundee, Small-Polar-MMV Screening Library” (2021).

Mtb growth Cornell: 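Whole-cell assay for inhibitors of Mycobacterium tuberculosis growth, labelled Cornell in the record; the read-out is not stated. The concentration is filed as 10 mM, unlikely as a test dose, so the dose is not known. The record gives no direction; compounds strong in two other growth screens of this library score well above the rest, so higher reads as stronger inhibition. Size under these conditions: about 53,000 compounds, about 900 of them at 50% or above in at least one test.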
Mtb heat-shock: 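Assay on Mycobacterium tuberculosis, filed only as a heat shock assay from Cornell; the read-out is not stated. The concentration is filed as 10 mM, unlikely as a test dose, so the dose is not known. Higher reads as stronger inhibition (inferred: compounds with an IC50 in retests scored well above the rest). Of about 69,000 compounds tested this way, about 930 (1.4%) reached 50% or more in at least one test.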

Values are the deposited “Percent Effect”, in %. How 0% and 100% were set is not recorded. Most values in the screen are low, and negative values occur. Compounds were drawn at random from those tested, without regard to their results. A dash means the value is not listed here; it may have been measured.

Compound | Mtb growth Cornell | Mtb heat-shock
CC(=O)N1CCN(Cc2ccc(F)cc2)CC2(CC(=O)N(C)C2)C1.O=C(O)C(F)(F)F (configuration not stated) | -35.74 | -19.68
Cc1cnc(CN(C)C2CCN(Cc3ccc(Cl)s3)C2)o1 (configuration not stated) | 21.86 | -18.83
CN(C)C(C(=O)N1CC(c2ccccn2)C1)c1cccc(F)c1 (configuration not stated) | 28.82 | -2.88
Cn1cc(C[C@H]2[C@@H](OCC3CC3)CCN2C(=O)c2ccc[nH]2)cn1 | -16.12 | -11.17
O=C(O)C(F)(F)F.O=C(O)C(F)(F)F.c1cncc(N2CCOCC3(CCCN(Cc4cccs4)C3)C2)c1 (configuration not stated) | 30.34 | -22.26
CNc1cncc(C2CCN(C(=O)c3cnco3)CC2)n1 | 14.09 | 0.2721
Cc1cc(NCCN)nc2ccccc12.O=[N+]([O-])O | -11.11 | 19.41
COC(=O)CN(C(=O)c1cccc(F)c1Cl)c1cccc(C)n1 | - | -13.54
Cn1ccnc1COc1ccc(CN2CCC(C(N)=O)CC2)cc1 | -4.359 | -14.14
CC(C)CC(=O)N1CCCn2cnc(CNS(C)(=O)=O)c2C1 | - | -15.49
COCC(O)CNC(=O)c1cnc(-c2ccccc2)nc1O (configuration not stated) | - | -6.707
CCC(O)CNC(=O)C1(N(C)Cc2ccccc2)Cc2ccccc2C1 (configuration not stated) | 13.89 | 11.24
N#Cc1cccc(S(=O)(=O)N2CCCCC2CCN2CCCC2)c1 (configuration not stated) | 44.62 | 18.72
Cc1nc(C)c(CC(=O)NCc2ccc(F)cc2)s1 | 16.42 | -6.912
CC(C)N1CCC(CC(=O)N2CCN(Cc3nccn3C)CC2)CC1 | - | -11.32
C[C@@H]1CN(CCCOc2ccc(F)cc2)CC[C@@]1(O)C1CCOCC1 | 17.05 | -14.16
CNC(=O)CN1CCC(NC(=O)Cc2ccc3c(c2)OCCO3)CC1 | - | -3.694
O=C(C1CCCN1Cc1nc(-c2ccco2)no1)N1CCSCC1 (configuration not stated) | 0.6585 | -12.72
CCOc1ccc(CN(CCOC)c2nc(C)nc3oc(C)nc23)cc1 | 32.42 | -17.92
O=C(CN1CCCS1(=O)=O)NCCOc1ccc2c(c1)CCC2 | -4.166 | -10.13
COCCN1C(=O)CCC12CCCN(C(=O)NC(C)C)CC2 (configuration not stated) | 17.06 | -0.9948
CCOc1ccc(Cl)c(C(=O)NC)n1 | - | 6.23
CC(C)n1cc2cc(NC(=O)CCS(C)(=O)=O)ccc2n1 | -9.861 | -17.4
CCCc1noc(C2CCN(S(=O)(=O)c3cccs3)CC2)n1 | - | -14.98
CN(C)C(=O)N1CCc2c(CNc3ncccn3)cncc2C1 | 16.26 | -4.49
[H][C@]12CN(C(=O)c3csc(C)n3)C[C@@]1([H])OCCN(S(C)(=O)=O)C2 | 9.498 | -7.72
N#CCCCS(=O)(=O)N1CCC(CSc2ccccc2)C1 (configuration not stated) | 30.97 | 11
COCC(=O)N1CCC(c2nccnc2Oc2cccnc2C)CC1 | - | -4.071
CCN(CCNC(=O)c1ccccc1Br)C1CC1 | - | -24.36
Cn1nccc1C(=O)N1CCOC(Cc2cccnc2)C1 (configuration not stated) | - | -18.36
Cc1ncc(CN2CCOC(c3ccc(-c4cnn(C)c4)cn3)C2)s1 (configuration not stated) | -21.4 | -5.631
CC(C)CCc1n[nH]c(C(=O)O)c1Br | 50.18 | 2.425
CCN(C)C(=O)c1ccc2c(c1)C(c1nc[nH]n1)CN2S(C)(=O)=O (configuration not stated) | -1.617 | -4.842
c1cnnc(N2CCCC2CNCc2nc(-c3cccs3)no2)c1 (configuration not stated) | - | 6.878
c1ccc(C2CCCN(Cc3cc4n(n3)CCNC4)CC2)cc1 (configuration not stated) | 22.56 | -42.32
CC(C)CN1CCN(C(=O)CCn2cccn2)CC1 | - | 37.09
COCCN1CCC2(CC1)CC(NCc1ccc(C)s1)c1ccccc12.O=C(O)C(F)(F)F.O=C(O)C(F)(F)F (configuration not stated) | -2.704 | 1.76
CC(C)(C)NC(=O)CN1CCCN(Cc2ccc(C#N)cc2)CC1 | -13.39 | 17.94
Cc1cc(C)n(CC2CN(CC(=O)NC3CCCC3)CCO2)n1 (configuration not stated) | -7.412 | -2.804
CN(c1cccnc1N1CCCC1)S(=O)(=O)c1cccnc1 | - | -0.7092
CCOc1ccc(NC(=O)NCc2csc(NC)n2)cc1C | 21.98 | 18.34
Cc1cc(C(=O)N[C@H](C)c2onc(-c3cccnc3)c2C(=O)O)c(C)o1.Cl | -25.84 | -4.545
CCNc1nnc(SCC(=O)N2CCN(Cc3ccc(Cl)s3)CC2)s1 | -15.17 | -6.109
C[C@@H]1CN(C(=O)c2ccncc2)CC[C@@]1(O)C1CCOCC1 | 13.96 | -3.009
CCCOc1cc(CNC(=O)Nc2ccccn2)ccn1 | -6.795 | -26.13
O=C(O)C(F)(F)F.[H][C@]12CCN(C(=O)c3ccco3)C[C@@]1([H])OCCN(C1CCOCC1)C2 | 11.79 | 13.99
Cc1cc(NC(=O)N2CCN(c3cccs3)CC2)ccc1C(N)=O | 3.823 | 1.236
Cc1cc(C)n(CC(C)NCCn2nc(C)c(Cl)c2C)n1 (configuration not stated) | 17.66 | -13.98
CCn1cc(NC(=O)NCC(C)N(C)C)cn1 (configuration not stated) | - | -11.73
Cc1nn(C)c(Cl)c1C1CCCN1CC(=O)N1CCCCC1 (configuration not stated) | -40.77 | -16.46
Cc1cncc(NC(=O)c2ccc(CN3CC[C@H](O)C3)cc2)c1 | - | -20.44
NS(=O)(=O)c1cnc(NCC2(c3cccc(F)c3)CCOCC2)s1 | 17.37 | 18.32
Cc1c(Br)c(C(=O)NC(C)c2ccccc2)nn1C (configuration not stated) | 19.45 | -14.25
CNC(=O)[C@@H]1C[C@@H](NC(=O)c2cn(C)nc2C)CN1Cc1sccc1C | - | -1.457
Cc1ccc(F)c(NC(=O)NCCCn2nc3ccccn3c2=O)c1 | - | -2.367
Cc1ccc(CCC(=O)N2CCOCC2)cc1Cl | - | -9.896
O=C(O)C(F)(F)F.[H][C@@]12COC[C@H](C(=O)N3CCCO3)[C@]1([H])CN(C1CCOCC1)C2 | 21.95 | -2.976
CC(C)c1noc(C(C)N2CCN(CCO)CC2)n1 (configuration not stated) | -16.21 | -6.206
CC(=O)N(Cc1noc(C)n1)C1CCN(CC2CCCC2)C1 (configuration not stated) | 7.209 | 8.729
[H][C@]12C[C@@H](Cn3cncn3)N(C(C)=O)[C@@]1([H])CCN(c1ccc(C)nn1)C2 | 5.005 | 7.422
O=C(O)C(F)(F)F.O=C(O)C(F)(F)F.[H][C@@]12CN(CCOC)CCO[C@]1([H])CN(Cc1ccc(C)s1)C2 | 26.72 | -19.97
NC(=O)CN1CCCN(C(=O)c2ccc(SC(F)F)cc2)CC1 | -1.899 | 13.51
Cc1ccccc1OCn1ccc(C(=O)NCCN2CCOCC2)n1 | - | -20.77
COc1ccc(F)cc1C(C)NC(=O)Cn1ccc(=O)n(C)c1=O (configuration not stated) | 33.8 | 13.23
Cc1cc(C)nc(CCNC(=O)C(c2ccc(F)cc2)N(C)C)n1 (configuration not stated) | -17.89 | -14.31
Cc1cc(C(=O)N2CCCC(c3cc(C(F)(F)F)[nH]n3)C2)on1 (configuration not stated) | - | 3.027
CC(C)CCN(C(=O)c1cccc(NC(N)=O)c1)C1CC1 | 16.84 | -14.8
CC(CS(C)(=O)=O)N(C(=O)CCc1ccc(Cl)s1)C1CC1 (configuration not stated) | -4.953 | -14.4
COCc1noc(-c2nn(-c3ccc(F)cc3)c3c2CCC3)n1 | 11.06 | 17.71
CCN(Cc1ccc(C(C)=O)cc1)CC1CCOCC1 | 25.41 | 5.377
COc1cccc(OCCCc2cc(C#N)ccn2)c1 | -17.42 | -9.379
O=C(c1ccc(Cl)c(Cl)c1)N1CCCC(n2cncn2)C1 (configuration not stated) | 17.36 | 18.9

For reference, 8 entries once more:

- O=C(O)C(F)(F)F.[H][C@]12CCN(C(=O)c3ccco3)C[C@@]1([H])OCCN(C1CCOCC1)C2 : Mtb growth Cornell: 11.79%; Mtb heat-shock: 13.99%
- COC(=O)CN(C(=O)c1cccc(F)c1Cl)c1cccc(C)n1 : Mtb heat-shock: -13.54%
- c1ccc(C2CCCN(Cc3cc4n(n3)CCNC4)CC2)cc1 (configuration not stated) : Mtb growth Cornell: 22.56%; Mtb heat-shock: -42.32%
- CCNc1nnc(SCC(=O)N2CCN(Cc3ccc(Cl)s3)CC2)s1 : Mtb growth Cornell: -15.17%; Mtb heat-shock: -6.109%
- Cc1ccccc1OCn1ccc(C(=O)NCCN2CCOCC2)n1 : Mtb heat-shock: -20.77%
- CCCOc1cc(CNC(=O)Nc2ccccn2)ccn1 : Mtb growth Cornell: -6.795%; Mtb heat-shock: -26.13%
- Cc1ncc(CN2CCOC(c3ccc(-c4cnn(C)c4)cn3)C2)s1 (configuration not stated) : Mtb growth Cornell: -21.4%; Mtb heat-shock: -5.631%
- CC(CS(C)(=O)=O)N(C(=O)CCc1ccc(Cl)s1)C1CC1 (configuration not stated) : Mtb growth Cornell: -4.953%; Mtb heat-shock: -14.4%